{"source": "the supplement of paper PMC9938120", "assay_in_all_cases": "drug sensitivity score (DSS3, normalised partial AUC of % inhibition dose-response) (DSS (score)); higher = more sensitive (stronger inhibition of viability); extreme values may be limits of the assay", "settings_in_all_cases": "72 h; library: FO5A; assay format: 2D, 384-well, CellTiter-Glo", "key": {"FMOC02_1": {"system": "FMOC02_1 (patient-derived low-grade serous ovarian cancer cells)", "summary_of_the_method": "(§1)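 Patient-derived ovarian cancer cells (early passage, under 10) were dispensed onto 384-well flat clear-bottom plates pre-plated with compounds at five concentrations covering a 10,000-fold range. Plates were incubated 72 h at 37 °C, 5% CO2, and viability was read with CellTiter-Glo. Data were processed in Breeze. The drug sensitivity score (DSS3) is a partial area under the percent-inhibition dose-response curve, divided by the log of the upper asymptote; higher means more sensitive.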"}, "FMOC02_3": {"system": "FMOC02_3 (patient-derived low-grade serous ovarian cancer cells)", "summary_of_the_method": "as §1"}, "FMOC03": {"system": "FMOC03 (patient-derived mucinous ovarian cancer cells)", "summary_of_the_method": "as §1"}, "FMOC04": {"system": "FMOC04 (patient-derived high-grade serous ovarian cancer cells)", "summary_of_the_method": "as §1"}, "FMOC06": {"system": "FMOC06 (patient-derived mucinous ovarian cancer cells)", "summary_of_the_method": "as §1"}, "FMOC09": {"system": "FMOC09 (patient-derived high-grade serous ovarian cancer cells)", "summary_of_the_method": "as §1"}, "FMOC11": {"system": "FMOC11 (patient-derived high-grade serous ovarian cancer cells)", "summary_of_the_method": "as §1"}, "FMOC14": {"system": "FMOC14 (patient-derived high-grade serous ovarian cancer cells)", "summary_of_the_method": "as §1"}, "FMOC17": {"system": "FMOC17 (patient-derived low-grade serous ovarian cancer cells)", "summary_of_the_method": "as §1"}, "FMOC22": {"system": "FMOC22 (patient-derived mucinous ovarian cancer cells)", "summary_of_the_method": "as §1"}, "FMOC24": {"system": "FMOC24 (patient-derived high-grade serous ovarian cancer cells)", "summary_of_the_method": "as §1"}, "FMOC25_2": {"system": "FMOC25_2 (patient-derived low-grade serous ovarian cancer cells)", "summary_of_the_method": "as §1"}, "FMOC27": {"system": "FMOC27 (patient-derived low-grade serous ovarian cancer cells)", "summary_of_the_method": "as §1"}, "FMOC28": {"system": "FMOC28 (patient-derived low-grade serous ovarian cancer cells)", "summary_of_the_method": "as §1"}}}
{"smiles": "C[C@@H]1C[C@H](N)C[C@H](c2ccncc2NC(=O)c2ccc(F)c(-c3c(F)cccc3F)n2)C1", "note": "[PIM-447]", "values": [{"measurement": "drug sensitivity score", "setting": "FMOC02_1", "value": 4.9}, {"measurement": "drug sensitivity score", "setting": "FMOC02_3", "value": 6}, {"measurement": "drug sensitivity score", "setting": "FMOC03", "value": 0.2}, {"measurement": "drug sensitivity score", "setting": "FMOC04", "value": 0}, {"measurement": "drug sensitivity score", "setting": "FMOC06", "value": 3.8}, {"measurement": "drug sensitivity score", "setting": "FMOC09", "value": 0.8}, {"measurement": "drug sensitivity score", "setting": "FMOC11", "value": 1.9}, {"measurement": "drug sensitivity score", "setting": "FMOC14", "value": 1.5}, {"measurement": "drug sensitivity score", "setting": "FMOC17", "value": 4.8}, {"measurement": "drug sensitivity score", "setting": "FMOC22", "value": 1}, {"measurement": "drug sensitivity score", "setting": "FMOC24", "value": 6}, {"measurement": "drug sensitivity score", "setting": "FMOC25_2", "value": 5.6}, {"measurement": "drug sensitivity score", "setting": "FMOC27", "value": 0}, {"measurement": "drug sensitivity score", "setting": "FMOC28", "value": 6.1}]}
